In patent publication US10568869B2, “Methods for diagnosing and treating prostate cancer” (Cornell University, priority 2012, dated 2020):
Some entries share one result that the patent states for a list of compounds.

Tested on: 50 kDa sAC isoform
Assay: Western blot of sAC after knockdown with siRNA or shRNA
Type: cell-based, human
Conditions: LNCaP, 72 hours

B1: shRNA: adenovirus-driven anti-sAC-directed shRNA, hairpin construct of SEQ ID NO: 10 targeting rat sAC mRNA (nucleic acid)
chain: GGGGTACCAAAAAAGTGGAAAGTGGAACGAAAGCATCTCTTGAATGCTTTCGTTCCACTTTCCACAAACAAGGCTTTTCTCCAAG
Q: For B1, which “reduction of expression of the 50 kDa sAC isoform” value is on record?
A: Its value is ≥ 80%.
